The list shows only some results of the screen, not a fair sample: it gathers tests that were run many times, whatever their T/C, doses with no T/C, and many T/C values between a quarter and a half above the control. Further doses and runs are listed elsewhere. T/C is the treated group as % of the vehicle group. Some doses have a count of surviving animals in place of a T/C: the source holds a T/C of zero for them, seemingly a mark for toxic or unscored doses. Some survivor counts are full or nearly so, which does not show that the dose was tolerated: survival well below the control is almost never listed, so the zero probably covers shortened survival too. Survivors were counted at the toxicity check, usually on the fifth day, unless a day is given; later deaths do not show. Schedules are NCI's codes, read here as Q, the interval in days (D) or hours (H), X, the number of doses. Some schedule codes hold Z or #, which are not explained here. Some structures stand for samples that the source files as different forms (salt, stereo form or complex); doses refer to the form tested. Some entries were tested several times; the values are given in rising order. For survival time, this PubChem deposit counts one and a half times the control or more as active, and values a quarter to a half above the control carry no call in these data; other NCI protocols may use other cut-offs. Some T/C values carry the count of animals alive at the toxicity check (mostly the fifth day); where none is given, no animal had died by that day.

This experiment has as its system L1210 leukemia ip in BDF1 mice, survival T/C. Put plainly: NCI In Vivo Anticancer Drug Screen. Data for tumor model L1210 Leukemia (intraperitoneal) in B6D2F1 (BDF1) mice. To be noted: T/C endpoint: mean survival time, higher T/C = longer survival.
Setting [1] is: dose: 16.6 mg/kg/injection, schedule: Q01DX009 (ip), vehicle: carboxymethylcellulose (CMC).
Where [2] appears, read: dose: 100.0 mg/kg/injection, schedule: Q01DX001 (ip), vehicle: carboxymethylcellulose (CMC).
The mark [3] stands for this setting: dose: 400.0 mg/kg/injection, schedule: Q01DX001 (ip), vehicle: saline.
Where [4] appears, read: dose: 50.0 mg/kg/injection, schedule: Q04DX002 (ip), vehicle: Klucel (hydroxypropylcellulose) (HPC).
Setting [5] is: dose: 100.0 mg/kg/injection, schedule: Q04DX002 (ip), vehicle: Klucel (hydroxypropylcellulose) (HPC).
The mark [6] stands for this setting: dose: 200.0 mg/kg/injection, schedule: Q04DX002 (ip), vehicle: Klucel (hydroxypropylcellulose) (HPC).
[7] abbreviates: dose: 400.0 mg/kg/injection, schedule: Q04DX002 (ip), vehicle: Klucel (hydroxypropylcellulose) (HPC).
Setting [8] is: dose: 400.0 mg/kg/injection, schedule: Q01DX009 (ip), vehicle: Klucel (hydroxypropylcellulose) (HPC).
The mark [9] stands for this setting: dose: 200.0 mg/kg/injection, schedule: Q01DX009 (ip), vehicle: water.
The mark [10] stands for this setting: dose: 200.0 mg/kg/injection, schedule: Q01DX009 (ip), vehicle: Klucel (hydroxypropylcellulose) (HPC).
Setting [11] is: dose: 400.0 mg/kg/injection, schedule: Q04DX003 (ip), vehicle: saline.
[12] abbreviates: dose: 400.0 mg/kg/injection, schedule: Q01DX001 (ip), vehicle: carboxymethylcellulose (CMC).
Setting [13] is: dose: 400.0 mg/kg/injection, schedule: Q04DX003 (ip), vehicle: saline with Tween-80.
Setting [14] is: dose: 200.0 mg/kg/injection, schedule: Q04DX003 (ip), vehicle: saline.

On to `COc1cc(-c2[o+]c3cc(O)cc(O)c3cc2OC2OC(CO)C(O)C(O)C2O)cc(OC)c1O` (stereo unspecified), for which the survivor count is 6 of 6 (dose: 200.0 mg/kg/injection, schedule: Q04DX003 (ip), vehicle: saline sonified) and 4 of 6 (dose: 400.0 mg/kg/injection, schedule: Q04DX003 (ip), vehicle: saline sonified).

Consider `CCOC(=O)Cc1c[nH]c2ccc(N(CCCl)CCCl)cc12`, for which the T/C is, setting by setting: (dose: 0.28 mg/kg/injection, schedule: Q01DX009 (ip), vehicle: carboxymethylcellulose (CMC)) 128 % of control; (dose: 0.7 mg/kg/injection, schedule: Q01DX009 (ip), vehicle: carboxymethylcellulose (CMC)) 140 % of control; (dose: 1.1 mg/kg/injection, schedule: Q01DX009 (ip), vehicle: carboxymethylcellulose (CMC)) 140 % of control [4 of 6 alive]; (dose: 2.2 mg/kg/injection, schedule: Q01DX009 (ip), vehicle: carboxymethylcellulose (CMC)) 145 % of control; (dose: 4.8 mg/kg/injection, schedule: Q01DX009 (ip), vehicle: carboxymethylcellulose (CMC)) 128 % of control; (dose: 11.0 mg/kg/injection, schedule: Q01DX009 (ip), vehicle: carboxymethylcellulose (CMC)) 126 % of control. Moreover, the T/C runs as follows: (dose: 11.1 mg/kg/injection, schedule: Q01DX001 (ip), vehicle: carboxymethylcellulose (CMC)) 125 % of control; (dose: 16.6 mg/kg/injection, schedule: Q01DX001 (ip), vehicle: carboxymethylcellulose (CMC)) 138 % of control; under setting [1], 127 % of control; (dose: 25.0 mg/kg/injection, schedule: Q01DX001 (ip), vehicle: carboxymethylcellulose (CMC)) 130 % of control. In addition, the survivor count reads like this: under setting [1], 6 of 6; (dose: 25.0 mg/kg/injection, schedule: Q01DX009 (ip), vehicle: carboxymethylcellulose (CMC)) 0 of 6 and 3 of 6; (dose: 37.5 mg/kg/injection, schedule: Q01DX009 (ip), vehicle: carboxymethylcellulose (CMC)) 1 of 6; (dose: 50.0 mg/kg/injection, schedule: Q01DX001 (ip), vehicle: carboxymethylcellulose (CMC)) 2 of 4; under setting [2], 2 of 4.

For the compound `CN(C)CCCN1CCC2(CCCC(C(F)(F)F)C2)CC1` (stereo unspecified), under setting [3], the survivor count is 1 of 4.

In the case of `CC1(C)C2CCC1(C)C(N=C(N)CSS(=O)(=O)O)C2` (stereo unspecified), the survivor count is reported as 3 of 3 under setting [4], 3 of 3 under setting [5], 1 of 3 under setting [6] and 0 of 3 under setting [7].

As to `O=C1CC(N2CC2)C(=O)N1c1ccccc1` (stereo unspecified), the survivor count under setting [8] is on record as 0 of 6.

With `Cc1cccc(C(N)=S)n1`, the survivor count under setting [8] is 0 of 6.

Take `COC(=O)NS(=O)(=O)C=C(c1ccccc1)c1ccccc1`: under setting [8], the survivor count is reported as 0 of 6.

With `O=C(CS(=O)(=O)Cc1ccccc1)N1CCOCC1`, the survivor count (dose: 100.0 mg/kg/injection, schedule: Q01DX009 (ip), vehicle: saline) is 6 of 6.

Regarding `Nc1nc2nsnc2nc1N`, the survivor count by setting is: (dose: 100.0 mg/kg/injection, schedule: Q01DX009 (ip), vehicle: water) 3 of 6; under setting [9], 1 of 6; (dose: 400.0 mg/kg/injection, schedule: Q01DX009 (ip), vehicle: water) 0 of 6.

For the compound `Cc1cncc2c(=O)n(-c3ccccc3)n(C)c12`, under setting [10], the survivor count is recorded as 3 of 3.

On to `C=CCc1cccc(CC=C)c1OCCN(CC)CC`, for which the survivor count (dose: 200.0 mg/kg/injection, schedule: Q01DX009 (ip), vehicle: saline) is recorded as 0 of 6 and the survivor count (dose: 400.0 mg/kg/injection, schedule: Q01DX009 (ip), vehicle: saline) is on record as 0 of 6.

With `O=C(C[n+]1ccccc1)c1cn(Cc2ccccc2)c2ccccc12`, the survivor count (dose: 300.0 mg/kg/injection, schedule: Q01DX001 (ip), vehicle: other) is listed as 0 of 6.

On to `CN(C)CCOc1ccccc1Cc1ccccc1`, for which, under setting [11], the survivor count is reported as 0 of 4.

In the case of `NC(CSS(=O)(=O)O)=NCc1ccsc1`, the survivor count was 0 of 3 under setting [4], 1 of 3 under setting [5], 1 of 3 under setting [6] and 0 of 3 under setting [7].

Turning to `CC(C)c1ccc2ccccc2c1`, where the note is “dose: 400.0 mg/kg/injection, schedule: Q01DX009 (ip), vehicle: saline with Tween-80”, the survivor count was 6 of 6.

As to `S=C1NCCS1`, the survivor count reads like this: under setting [12], 1 of 4; (dose: 400.0 mg/kg/injection, schedule: Q04DX003 (ip), vehicle: Klucel (hydroxypropylcellulose) (HPC)) 3 of 6.

As to `c1ccc([P+](CC2CCCO2)(c2ccccc2)c2ccccc2)cc1` (stereo unspecified), the survivor count runs as follows: (dose: 200.0 mg/kg/injection, schedule: Q01DX001 (ip), vehicle: saline) 1 of 4; under setting [3], 0 of 4.

As to `O=S(=O)(F)c1cc(Cl)c(O)c(S(=O)(=O)F)c1`, the survivor count is, setting by setting: under setting [10], 0 of 6; under setting [8], 0 of 6.

For `CCC(C)c1ccc(-c2ccc(OC)cc2)cc1` (stereo unspecified), under setting [13], the survivor count is recorded as 6 of 6.

For the compound `CC1(C)CN1c1nc(N2CC2(C)C)nc(N2CC2(C)C)n1`, the T/C under setting [2] is 131 % of control. Besides, the survivor count under setting [12] is 1 of 6.

In the case of `CCOC(=O)c1cc(OCC)nc(SC)n1`, the survivor count is, setting by setting: (dose: 100.0 mg/kg/injection, schedule: Q01DX Z (ip), vehicle: methylcellulose (MC)) 5 of 6; (dose: 200.0 mg/kg/injection, schedule: Q01DX Z (ip), vehicle: methylcellulose (MC)) 5 of 6.

On to `CC(=O)C(Sc1ccccc1[N+](=O)[O-])C(C)=O.[Cr]`, for which the survivor count (dose: 200.0 mg/kg/injection, schedule: Q01DX001 (ip), vehicle: other) is reported as 4 of 4.

Take `NC(N)=Nc1ccccc1` (tested in a mixture with another compound): the survivor count under setting [11] was 1 of 6.

`Nc1ccc(CCCCc2ccccc2)cc1Cl`: the survivor count under setting [13] is 0 of 6.

Consider `[Cu+2].[NH-]C(CC(N)=O)C(=O)O.[NH-]C(CC(N)=O)C(=O)O` (stereo unspecified), for which the survivor count reads like this: (dose: 50.0 mg/kg/injection, schedule: Q01DX009 (ip), vehicle: saline) 1 of 6; (dose: 100.0 mg/kg/injection, schedule: Q04DX003 (ip), vehicle: saline) 0 of 6; under setting [14], 0 of 6; under setting [11], 0 of 6.

For the compound `C1CSC(=[N+]2CC[N+](=C3SCCS3)CC2)S1`, the survivor count (dose: 100.0 mg/kg/injection, schedule: Q04DX002 (ip), vehicle: saline) is 0 of 3; the survivor count (dose: 200.0 mg/kg/injection, schedule: Q04DX002 (ip), vehicle: saline) is reported as 0 of 3; the survivor count (dose: 400.0 mg/kg/injection, schedule: Q04DX002 (ip), vehicle: saline) is 0 of 3.

As for `O=C(O)CCCNCc1cc(=O)[nH]c(=O)[nH]1`, the survivor count is 1 of 4 under setting [14] and 0 of 4 under setting [11].

`O=C(O)c1occ(Cl)c1Cl`: the survivor count runs as follows: under setting [9], 0 of 6; under setting [3], 0 of 6; under setting [8], 0 of 6; (dose: 400.0 mg/kg/injection, schedule: Q04DX003 (ip), vehicle: water) 4 of 6.

Source of the values: PubChem BioAssay AID248 (DTP/NCI, 2004).
